Data as given in PubChem BioAssay AID1259308 (NCATS, 2017).

- Test: 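Knock-downs that increase output of a recombinant reporter protein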 (primary screen)
- Cells: human HEK293 embryonic kidney cells stably expressing firefly luciferase (HEK-CMV-Luc2-Hygro)
- Reagent: single siRNA against human genes, 0.8 pmol siRNA per well
- Timing: 72 h
- Measurement: 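Reporter luminescence and viable-cell signal on separate replicate plates, given as percent of non-targeting control and median/MAD z-scores, plus per-cell luciferase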
- Reading the numbers: total luciferase, z-score and total luciferase, % of control: higher = more reporter protein produced
- Active means: 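An siRNA counts as active if its total luciferase robust z-score exceeds 3; genes with two or more such siRNAs out of three were retested with fresh siRNAs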
- Calls: active = raised luciferase; inactive = no rise
Shown is one part, drawn at random, of about 59,000 deposited reagents. About 1,510 of them (2.6%) count as active. 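Calls use total luciferase alone and ignore viability, so some active siRNAs may act by altering cell number.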 Unmarked entries are inactive. Reagents against one gene are numbered here. Further read-outs or replicates are left out here. No sequences are given here.

With knock-down of RIMS3 (GeneID 9783) #1, the record shows total luciferase, z-score -1.92; total luciferase, % of control 43.6.
With knock-down of RIMS3 (GeneID 9783) #2 the results were total luciferase, z-score 0.432; total luciferase, % of control 90.5.
Against RIMS3 (GeneID 9783) #3, the values are total luciferase, z-score 0.451; total luciferase, % of control 90.9.
Depletion of H2AC15 (GeneID 8330) #1 resulted in: total luciferase, z-score -0.0662; total luciferase, % of control 80.6.
Against H2AC15 (GeneID 8330) #2, the entry reads total luciferase, z-score 0.533; total luciferase, % of control 92.5.
With knock-down of H2AC15 (GeneID 8330) #3, the screen gave total luciferase, z-score 1.75; total luciferase, % of control 117.
Knock-down of TENT5A (GeneID 55603) #1 came out at: total luciferase, z-score -0.371; total luciferase, % of control 74.5.
TENT5A (GeneID 55603) #2 gave total luciferase, z-score -1.8; total luciferase, % of control 46.
TENT5A (GeneID 55603) #3 showed total luciferase, z-score -0.764; total luciferase, % of control 66.7.
Against TMEM202 (GeneID 338949) #1, the entry reads total luciferase, z-score -0.403; total luciferase, % of control 73.9.
For TMEM202 (GeneID 338949) #2, the values are total luciferase, z-score 1.03; total luciferase, % of control 102.
TMEM202 (GeneID 338949) #3 gave total luciferase, z-score 0.243; total luciferase, % of control 86.7.
For RNF114 (GeneID 55905) #1, the values are total luciferase, z-score -0.572; total luciferase, % of control 70.5.
Knock-down of RNF114 (GeneID 55905) #2 came out at: total luciferase, z-score -0.553; total luciferase, % of control 70.9.
For RNF114 (GeneID 55905) #3 the deposit lists total luciferase, z-score -0.485; total luciferase, % of control 72.2.
Depletion of TTLL6 (GeneID 284076) #1 resulted in: total luciferase, z-score -1.03; total luciferase, % of control 61.3.
For TTLL6 (GeneID 284076) #2, the values are total luciferase, z-score 0.503; total luciferase, % of control 91.9.
Depletion of TTLL6 (GeneID 284076) #3 gave: total luciferase, z-score -0.705; total luciferase, % of control 67.9.
Against BRINP2 (GeneID 57795) #1, the entry reads total luciferase, z-score 0.121; total luciferase, % of control 84.3.
Against BRINP2 (GeneID 57795) #2, the entry reads total luciferase, z-score 1.74; total luciferase, % of control 117.
After knock-down of BRINP2 (GeneID 57795) #3 the results were total luciferase, z-score -0.525; total luciferase, % of control 71.4.
For TNFSF10 (GeneID 8743) #1, the values are total luciferase, z-score -0.772; total luciferase, % of control 66.5.
Silencing of TNFSF10 (GeneID 8743) #2 came out at: total luciferase, z-score -0.848; total luciferase, % of control 65.
Knock-down of TNFSF10 (GeneID 8743) #3 gave: total luciferase, z-score -1.02; total luciferase, % of control 61.5.
Knock-down of PRSS1 (GeneID 5644) #1 came out at: total luciferase, z-score 0.0964; total luciferase, % of control 83.8.
For PRSS1 (GeneID 5644) #2, the entry reads total luciferase, z-score 0.277; total luciferase, % of control 87.4.
PRSS1 (GeneID 5644) #3 showed total luciferase, z-score 1.33; total luciferase, % of control 108.
After knock-down of FCRLA (GeneID 84824) #1, the screen gave total luciferase, z-score 0.205; total luciferase, % of control 86.
With knock-down of FCRLA (GeneID 84824) #2, the record shows total luciferase, z-score -0.237; total luciferase, % of control 77.2.
Silencing of FCRLA (GeneID 84824) #3 resulted in: total luciferase, z-score 0.692; total luciferase, % of control 95.6.
TRIM54 (GeneID 57159) #1 scored total luciferase, z-score 0.13; total luciferase, % of control 84.5.
Knock-down of TRIM54 (GeneID 57159) #2 resulted in: total luciferase, z-score -0.399; total luciferase, % of control 73.9.
Knock-down of TRIM54 (GeneID 57159) #3 resulted in: total luciferase, z-score 0.31; total luciferase, % of control 88.1.

3 entries from above, ordered by “total luciferase, z-score”, low to high.
H2AC15 (GeneID 8330) #1 — total luciferase, z-score: -0.0662; total luciferase, % of control: 80.6
RIMS3 (GeneID 9783) #2 — total luciferase, z-score: 0.432; total luciferase, % of control: 90.5
RIMS3 (GeneID 9783) #3 — total luciferase, z-score: 0.451; total luciferase, % of control: 90.9
